Experimental data published in patent US20240247038A1.
No constants are given. Whether binding was seen depends on the method and setting. Some results given as binding are weak or reduced against the parent protein; the word gives no strength.

The chains behind the UniProt entries cited, without tags or fusion partners. Where a name states a change or a piece, a line headed by the entry shows the natural chain unless it says otherwise.
UniProt P09038: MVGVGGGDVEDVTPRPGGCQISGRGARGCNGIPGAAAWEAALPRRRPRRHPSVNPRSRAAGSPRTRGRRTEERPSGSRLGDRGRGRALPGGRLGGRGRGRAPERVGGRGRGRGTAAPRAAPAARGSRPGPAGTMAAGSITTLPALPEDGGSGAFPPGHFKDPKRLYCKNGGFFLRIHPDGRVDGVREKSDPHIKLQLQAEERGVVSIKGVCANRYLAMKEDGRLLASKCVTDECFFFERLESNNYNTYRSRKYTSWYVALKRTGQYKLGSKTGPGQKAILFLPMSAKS

Tests used:
[1] = target: Jagged1-Fc fusion protein (commercial, R&D Systems; as used in native gel electrophoresis) (human); assay: native isoelectric focusing gel (FIG. 6A)
[2] = target: Jagged1-Fc fusion protein (commercial, R&D Systems; as used in native gel electrophoresis) (human); assay: native agarose gel electrophoresis (FIG. 6A)

binding [1]: binds
binding [2]: binds
Substance: recombinant human FGF2 (low molecular weight isoform, 18 kDa) (from UniProt P09038 143-288) (ligand)
